Measured values taken from the supplement of paper PMC3682954.
Counter-ions that a name gives are not always drawn. ± gives the standard deviation of the averaged measurements. The list shows a part of the results. Most values come without repeats; read them as rough.

System: RAW 264.7
Test: HMGB1-induced TNF-alpha production relative to HMGB1-stimulated control; higher = more TNF-alpha secretion (less inhibition)
Conditions: stimulus: HMGB1 5 ug/ml, 18 h
[1] = compound concentration: 1 ug/ml

Row | SMILES | HMGB1-induced TNF-alpha production (compound concentration: 3 uM) [%] | HMGB1-induced TNF-alpha production [1] [%]
1 | C[C@H](O)C(=O)C1=Nc2c(nc(N)[nH]c2=O)NC1 [Sepiapterin] | 106 | 
2 | COc1cc(N)c(Cl)cc1C(=O)NC1CCN(CCCOc2ccc(F)cc2)CC1OC (stereo unspecified) [Cisapride] | 83.5 ± 28 | 
3 | N[C@H](Cc1ccc2ccccc2c1)C(=O)O [3-(2-Naphthyl)-D-alanine] |  | 89.4
4 | CC(C)(C)c1cc(/C=C(\C#N)C(N)=S)cc(C(C)(C)C)c1O [Tyrphostin AG 879] | 165 | 
5 | COC1=CC(=O)C[C@@H](C)[C@]12Oc1c(Cl)c(OC)cc(OC)c1C2=O [Griseofulvin] | 74.6 | 60.8
6 | COC1=CC(=O)C[C@@H](C)[C@]12Oc1c(Cl)c(OC)cc(OC)c1C2=O | 90.5 ± 1.2 | 
7 | COc1ccc(-c2coc3cc(O)cc(O)c3c2=O)cc1 [Biochanin A] |  | 53.3
8 | COC(=O)Nc1nc2cc(C(=O)c3ccc(F)cc3)ccc2[nH]1 [Flubendazole] | 84.9 | 
9 | COC(=O)Nc1nc2cc(C(=O)c3ccc(F)cc3)ccc2[nH]1 [Flubendazol] | 124 | 
10 | COC(=O)Nc1nc2cc(C(=O)c3ccc(F)cc3)ccc2[nH]1 | 125 | 
11 | CCOC(=O)c1ccc(O)cc1 | 83.1 | 
12 | CC(=O)O[C@H]1Cc2ccccc2N(C(N)=O)c2ccccc21 | 91.5 | 
13 | O=C(O[C@@H]1C[C@@H]2C[C@H]3C[C@H](C1)N2CC3=O)c1c[nH]c2ccccc12 | 110 | 
14 | O=C(O[C@@H]1C[C@@H]2C[C@H]3C[C@H](C1)N2CC3=O)c1c[nH]c2ccccc12 [Dolasetron] | 100 | 
15 | O=C(O)c1ccccc1Nc1cccc(OCc2ccc3ccccc3n2)c1 | 111 | 
16 | CC(C)(C)NC(=O)[C@@H]1CN(Cc2cccnc2)CCN1C[C@@H](O)C[C@@H](Cc1ccccc1)C(=O)N[C@H]1c2ccccc2C[C@H]1O | 43.2 | 
17 | COc1ccc2cc1Oc1ccc(cc1)C[C@H]1c3c(cc4c(c3Oc3cc5c(cc3OC)CCN(C)[C@@H]5C2)OCO4)CCN1C | 83 | 
18 | CCCCCCCC/C=C\CCCCCCCC(=O)O [Oleic Acid] | 103 | 
19 | CC(C)(C)NCC(O)c1ccc(O)c(CO)c1 (stereo unspecified) [Albuterol hemisulfate] | 60.3 | 
20 | CC(C)(C)NCC(O)c1ccc(O)c(CO)c1 (stereo unspecified) | 51.3 | 
21 | CC(C)(C)NCC(O)c1ccc(O)c(CO)c1 (stereo unspecified) [Salbutamol] | 58.8 ± 29 | 

Part of the list above, with tabs:
Row	SMILES	HMGB1-induced TNF-alpha production (compound concentration: 3 uM) [%]	HMGB1-induced TNF-alpha production [1] [%]
17	COc1ccc2cc1Oc1ccc(cc1)C[C@H]1c3c(cc4c(c3Oc3cc5c(cc3OC)CCN(C)[C@@H]5C2)OCO4)CCN1C	83	
18	CCCCCCCC/C=C\CCCCCCCC(=O)O [Oleic Acid]	103	
19	CC(C)(C)NCC(O)c1ccc(O)c(CO)c1 (stereo unspecified) [Albuterol hemisulfate]	60.3	
20	CC(C)(C)NCC(O)c1ccc(O)c(CO)c1 (stereo unspecified)	51.3	

More records:

Row | SMILES | HMGB1-induced TNF-alpha production (compound concentration: 3 uM) [%] | HMGB1-induced TNF-alpha production [1] [%]
22 | Cc1c(OCC(F)(F)F)ccnc1C[S+]([O-])c1nc2ccccc2[nH]1 (stereo unspecified) | 73.9 ± 11 | 
23 | Cc1c(OCC(F)(F)F)ccnc1C[S+]([O-])c1nc2ccccc2[nH]1 (stereo unspecified) [Lansoprazole] | 106 ± 24 | 
24 | [N-]=[N+]=Nc1ccc(C(=O)CSC[C@H](NC(=O)CC[C@H](N)C(=O)O)C(=O)NCC(=O)O)cc1 [S-(p-Azidophenacyl)glutathione] | 87.1 | 
25 | Cn1c(=O)c2c(ncn2C)n(C)c1=O | 75.2 | 
26 | Cn1c(=O)c2c(ncn2C)n(C)c1=O [Caffeine] | 94.1 ± 15 | 62.4
27 | O=C(O)C[C@H](O)C[C@H](O)/C=C/c1c(C2CC2)nc2ccccc2c1-c1ccc(F)cc1 | 163 | 
28 | Cc1ccc(C)c(OCCCC(C)(C)C(=O)O)c1 | 93.3 | 
29 | Cc1ccc(C)c(OCCCC(C)(C)C(=O)O)c1 [Gemfibrozil] | 98.1 ± 2.2 | 
30 | O=c1[nH]c2cc(Cl)ccc2c(O)c1-c1cccc(Oc2ccccc2)c1 | 116 | 
31 | O=C(CCCN1CCC(O)(c2ccc(Cl)cc2)CC1)c1ccc(F)cc1 [Haloperidol] | 87.4 ± 22 | 
32 | O=C(CCCN1CCC(O)(c2ccc(Cl)cc2)CC1)c1ccc(F)cc1 | 70.8 | 
33 | NC(=O)c1ccc[n+]([C@@H]2O[C@H](COP(=O)([O-])OP(=O)(O)OC[C@H]3O[C@@H](n4cnc5c(N)ncnc54)[C@H](O)[C@@H]3O)[C@@H](O)[C@H]2O)c1 | 91.7 | 
34 | NC(=O)c1ccc[n+]([C@@H]2O[C@H](COP(=O)([O-])OP(=O)(O)OC[C@H]3O[C@@H](n4cnc5c(N)ncnc54)[C@H](O)[C@@H]3O)[C@@H](O)[C@H]2O)c1 [Nadide] | 94.6 | 
35 | CNCCC=C1c2ccccc2C=Cc2ccccc21 [Norcyclobenzaprine] | 58.6 | 
36 | NCC(=O)CCC(=O)O | 78.9 | 
37 | COc1ccc(CN(CCN(C)C)c2ncccn2)cc1 | 107 | 
38 | N=C(N)SCCc1ccc(CCSC(=N)N)cc1 [1,4-PBIT dihydrobromide] | 111 | 
39 | Cc1cc2c(OCC(CNC(C)(C)C)OC(=O)c3ccccc3)cccc2[nH]1 (stereo unspecified) [Bopindolol] | 103 | 
40 | CC1(C)S[C@@H]2[C@H](NC(=O)[C@H](N)c3ccccc3)C(=O)N2[C@H]1C(=O)OC1OC(=O)c2ccccc21 (stereo partly specified) [Talampicillin hydrochloride] | 92.6 | 
41 | NC(=O)OCC(O)COc1ccc(Cl)cc1 (stereo unspecified) [Chlorphensin carbamate] | 99 | 
42 | CC(N)(Cc1ccc(O)cc1)C(=O)O (racemic) [DL-alpha-Methyl-p-tyrosine] | 84.7 | 

Row | SMILES | HMGB1-induced TNF-alpha production (compound concentration: 3 uM) [%] | HMGB1-induced TNF-alpha production [1] [%]
43 | COC(=O)CCc1ccc(OCC(O)CNC(C)C)cc1 (stereo unspecified) [Esmolol hydrochloride] | 121 | 
44 | COC(=O)CCc1ccc(OCC(O)CNC(C)C)cc1 (stereo unspecified) [Esmolol] | 113 | 
45 | COC(=O)CCc1ccc(OCC(O)CNC(C)C)cc1 (stereo unspecified) | 98.4 | 
46 | NCCS [Cysteamine hydrochloride] | 113 | 
47 | NCCS | 81.4 | 
48 | COCCOC(=O)C1=C(C)NC(C)=C(C(=O)OC(C)C)C1c1cccc([N+](=O)[O-])c1 (stereo unspecified) | 103 ± 12 | 
49 | COCCOC(=O)C1=C(C)NC(C)=C(C(=O)OC(C)C)C1c1cccc([N+](=O)[O-])c1 (stereo unspecified) [Nimodipine] | 99 ± 9 | 
50 | CN1C(C(=O)Nc2ccccn2)=C(O)c2ccccc2S1(=O)=O | 97.2 | 
51 | CN1C(C(=O)Nc2ccccn2)=C(O)c2ccccc2S1(=O)=O [Piroxicam] | 108 ± 9 | 
52 | COc1c(C)c2c(c(O)c1C/C=C(\C)CCC(=O)OCCN1CCOCC1)C(=O)OC2 [Mycophenolate mofetil] | 20.8 | 
53 | COC(=O)[C@@H](N)Cc1ccc(O)c(O)c1 [L-3,4-Dihydroxyphenylalanine methyl ester hydrochloride] | 78.2 | 
54 | C[C@]12CCC(=O)C=C1C=C[C@@H]1[C@@H]2CC[C@@]2(C)[C@H]1CC[C@@]21CCC(=O)O1 [Canrenone] | 90.8 ± 22 | 
55 | C[C@]12CCC(=O)C=C1C=C[C@@H]1[C@@H]2CC[C@@]2(C)[C@H]1CC[C@@]21CCC(=O)O1 | 77.4 | 
56 | COc1ccc2c(c1)c(CC(=O)O)c(C)n2Cc1ccc(Cl)cc1 [1-(4-Chlorobenzyl)-5-methoxy-2-methylindole-3-acetic acid] | 99.5 | 
57 | CC1(C)[C@@H](O)CC[C@]2(C)[C@H]3C(=O)C=C4[C@@H]5C[C@@](C)(C(=O)O)CC[C@]5(C)CC[C@@]4(C)[C@]3(C)CC[C@@H]12 [Enoxolone] |  | 46
58 | CC1(C)[C@@H](O)CC[C@]2(C)[C@H]3C(=O)C=C4[C@@H]5C[C@@](C)(C(=O)O)CC[C@]5(C)CC[C@@]4(C)[C@]3(C)CC[C@@H]12 | 77.1 | 
59 | Oc1cc(O)c2c(c1)O[C@H](c1ccc(O)c(O)c1)[C@@H](O)C2 (racemic) [Catechin-(+,-) hydrate] | 111 | 
60 | CCCNC(C)C(=O)Nc1c(C)csc1C(=O)OC (stereo unspecified) [Articaine hydrochloride] | 109 | 
61 | NCCc1cc[nH]n1 [Betazole hydrochloride] | 62.8 | 
62 | COc1cccc(N(C)C(=S)Oc2ccc3c(c2)CCCC3)n1 [Liranaftate] | 104 | 
63 | Cc1c(NC(C)C)c(=O)n(-c2ccccc2)n1C | 69.2 | 

Row | SMILES | HMGB1-induced TNF-alpha production (compound concentration: 3 uM) [%] | HMGB1-induced TNF-alpha production [1] [%]
64 | Cc1c(NC(C)C)c(=O)n(-c2ccccc2)n1C [Isopyrin hydrochloride] | 114 | 
65 | COc1cc(/C=C(\C#N)C(=O)c2ccc(O)c(O)c2)cc(I)c1O [I-OMe-Tyrphostin AG 538] | 109 | 
66 | CC(=O)Oc1cc(OC(C)=O)c2c(=O)cc(-c3ccc(OC(C)=O)c(OC(C)=O)c3)oc2c1 |  | 79.7
67 | N[C@@H](Cc1c[nH]cn1)C(=O)O [L-Histidine hydrochloride] | 84.7 | 
68 | NCCC(O)(P(=O)(O)O)P(=O)(O)O [Pamidronic acid] | 87.9 | 
69 | CC(C[N+](C)(C)C)OC(N)=O (stereo not drawn) [Carbamyl-beta-methylcholine] | 106 | 
70 | CC(C[N+](C)(C)C)OC(N)=O (stereo unspecified) | 73.8 | 
71 | CC(C[N+](C)(C)C)OC(N)=O (stereo unspecified) [Bethanechol chloride] | 109 ± 21 | 
72 | NC(Cc1cnc[nH]1)C(=O)NC(CO)C(=O)O (stereo unspecified) |  | 65.6
73 | CCCCCCCCCCOc1cc2c(O)c(C(=O)OCC)cnc2cc1OCC | 91.9 | 
74 | COc1ccc2c(c1)C(=O)N(CCc1ccc(S(=O)(=O)NC(=O)NC3CCCCC3)cc1)C(=O)C2(C)C [Gliquidone] | 55.6 | 
75 | CC(C)[C@@H](C)/C=C/[C@@H](C)[C@H]1CC[C@H]2/C(=C/C=C3\C[C@@H](O)CC[C@@H]3C)CCC[C@]12C [dihydrotachysterol] |  | 68.9
76 | NS(=O)(=O)Cc1noc2ccccc12 [Zonisamide] | 116 ± 20 | 
77 | CN(C)CCN(Cc1ccc(Cl)cc1)c1ccccn1 [Chloropyramine hydrochloride] | 126 | 
78 | CN(C)CCN(Cc1ccc(Cl)cc1)c1ccccn1 | 76.3 | 
79 | COc1ccc([C@@H]2Sc3ccccc3N(CCN(C)C)C(=O)[C@@H]2OC(C)=O)cc1 [Diltiazem hydrochloride] | 84.8 ± 7.6 | 
80 | COc1ccc([C@@H]2Sc3ccccc3N(CCN(C)C)C(=O)[C@@H]2OC(C)=O)cc1 [Diltiazem] | 81.9 | 
81 | COc1ccc([C@@H]2Sc3ccccc3N(CCN(C)C)C(=O)[C@@H]2OC(C)=O)cc1 | 91.1 | 
82 | Cc1cn([C@H]2C[C@H](N=[N+]=[N-])[C@@H](CO)O2)c(=O)[nH]c1=O | 93.4 | 
83 | Cc1cn([C@H]2C[C@H](N=[N+]=[N-])[C@@H](CO)O2)c(=O)[nH]c1=O [3'-Azido-3'-deoxythymidine] | 87.6 ± 14 | 
84 | Cc1cn([C@H]2C[C@H](N=[N+]=[N-])[C@@H](CO)O2)c(=O)[nH]c1=O [Zidovudine, AZT] | 76.6 | 
